This is one part of the list.
System: T1, CTL2-GFP (C. trachomatis L2/434/Bu, GFP-expressing)
T1 construct: L2/434/Bu, GFP-expressing
Design: species or system HeLa; Intracellular C. trachomatis growth in HeLa cells, bulk GFP fluorescence relative to DMSO
Conditions: bulk GFP, single well; 28.5 h, 10 µM; inhibitor

Question: How did the “% of control remaining” value turn out when `c1c(C2CC2)[nH]c2nc(N3CCCC3)nc(N3CCCC3)c12` [CBK016707G] was run?
Answer: The value was 11.0597%.

Question: For `O=C(OCCN1CCOCC1)c1ccccc1I` [CBK033860], which “% of control remaining” value is on record?
Answer: The value was 112.794%.

Question: Which “% of control remaining” value does the source give for `COc1ccc(CC2CCCN2C(=O)Cn2cncn2)cc1` (centres unmarked) [CBK306351] here?
Answer: Its value is 130.441%.

Question: Which “% of control remaining” value does the source give for `O=C(O)CNC(=O)CCn1c(-c2ccccc2)cc2ccccc21` [CBK286780] here?
Answer: Its value is 127.044%.

Question: How did the “% of control remaining” value turn out when `CCOC(=O)N1CCC(NCC(C)(C)CN(C)C)CC1` [CBK028516] was run?
Answer: The value was 117.826%.

Question: Which “% of control remaining” value does the source give for `CCc1nn(CC(=O)NCC2CC2)c(=O)c2cc3sccc3n12` [CBK284055] here?
Answer: Its value is 139.757%.

Question: Which “% of control remaining” value does the source give for `Cc1cc(C)n(C2CCN(Cc3nc4ccccc4[nH]3)CC2)n1` [CBK281620] here?
Answer: The value was 124.848%.

Question: `COc1ccc(NC(=O)N[C@@H]2C=C[C@@H](c3c(C)nn(CCC#N)c3C)C2)cc1` [CBK288804] was tested. Which “% of control remaining” value did it give?
Answer: The value was 114.882%.

Question: Which “% of control remaining” value does the source give for `O=C(NC(c1ccccc1)c1ccsc1)C1CCN(C2Cc3ccccc3C2)CC1` (centres unmarked) [CBK148541] here?
Answer: The value was 113.627%.

Question: `CCCNC(=O)C[C@@H]1CCN(C(=O)c2ccnc(Cl)c2)C[C@@H]1CC` [CBK289138] was tested. Which “% of control remaining” value did it give?
Answer: The value was 105.046%.

Question: `O=C(O)c1cc(-c2ccccc2)oc1CSCCO` [CBK286559] was tested. Which “% of control remaining” value did it give?
Answer: Its value is 113.469%.

Question: For `COCc1nc(NCCn2c(C)cc(C)nc2=O)cc(C2CCOC2)n1` (centres unmarked) [CBK307495], which “% of control remaining” value is on record?
Answer: The value was 114.527%.

Question: How did the “% of control remaining” value turn out when `CC(C)CN(CC(N)=O)CC(=O)NC1(c2ccccc2)CCC1` [CBK066883T] was run?
Answer: Its value is 121.926%.

Question: How did the “% of control remaining” value turn out when `NC(=O)CN1CCCN(c2ccnc(OCCN3CCOCC3)n2)CC1` [CBK083804] was run?
Answer: Its value is 114.393%.

Question: With `COc1ccc(-c2cnc(N)c(N3CCC[C@@H]3CO)n2)c(OC)c1OC` [CBK063505] as the molecule, how does the “% of control remaining” value read?
Answer: Its value is 132.891%.

Question: For `CCCc1cc(C(=O)N2CCN(C)C3(CCNC(=O)CC3)C2)ccn1` (centres unmarked) [CBK306815], which “% of control remaining” value is on record?
Answer: The value was 137.415%.

Question: `Cc1cccc(-c2nnn(CC(=O)O)n2)c1` [CBK068105] was tested. Which “% of control remaining” value did it give?
Answer: The value was 99.6665%.

Question: For `COc1cc(NC(=O)c2nc[nH]n2)c(OC)cc1Cl` [CBK288170], which “% of control remaining” value is on record?
Answer: Its value is 104.214%.

Question: `O=C(Cn1cnc2ccc(F)cc2c1=O)N1Cc2ccccc2C(c2ccccc2)C1` (centres unmarked) [CBK296767] was tested. Which “% of control remaining” value did it give?
Answer: Its value is 133.025%.

Question: Which “% of control remaining” value does the source give for `CC(=O)Nc1ccc(C(=O)Nc2ccc(S(=O)(=O)N3CCOCC3)cc2)cc1` [CBK264763] here?
Answer: The value was 128.132%.

Question: With `Cc1ccc2c(N)c(C(=O)Nc3ccc(C#N)cc3)sc2n1` [CBK115348] as the molecule, how does the “% of control remaining” value read?
Answer: Its value is 111.298%.

Question: How did the “% of control remaining” value turn out when `Cc1ccc(S(=O)(=O)N(CC(=O)O)c2ccc(Br)cc2)cc1` [CBK287125] was run?
Answer: Its value is 122.449%.

Question: How did the “% of control remaining” value turn out when `COc1ccc(-c2nc(NC(=O)Cc3ccccc3OC(F)(F)F)cnc2-c2cccc(C)c2)cc1` [CBK037551] was run?
Answer: The value was 168.586%.

— article PMC12040169 (PLOS Biology, 2025)
